Values quoted from earlier work as cited in patent US20090075925A1, “Methods and Compositions Related to APOBEC-1 Expression” (priority 2006, published 2009).
At least one compound was matched to its structure with a doubt left.

Test system: PKC
Settings: range printed with mixed units; cited from earlier work

Structure (SMILES): CCCCCCCCCCCCCC(=O)O[C@@H]1[C@@H](C)[C@@]2(O)[C@@H](C=C(CO)C[C@]3(O)C(=O)C(C)=C[C@@H]23)[C@@H]2C(C)(C)[C@]12OC(C)=O [PMA]
- PKC EC50: PKC EC50 = 200 nM-100 μM
